# From publication PMC10904049
# Results are given in words; binding and its absence hold for the method and conditions named. In cells and extracts the contact can be indirect. A result given as binding can be weak or reduced; the word gives no strength. Where a sequence is shown, tags or fusion partners need not be part of it.
# Biological target: Cerulean-tagged CaVβ2B subunit (Cerulean-WT β2B) (human)
# Assay: FRET or BRET; flow cytometric FRET 2-hybrid assay in live HEK293T cells 1 day after transfection; Cerulean-β2B with Venus-tagged WT or mutant Rad; FRET efficiency against free Venus-Rad fitted with a 1:1 binding isotherm, relative dissociation constant K_d,EFF; cycloheximide 100 μM 2 hours before; cells untreated or treated with forskolin (10 or 50 μM), calyculin A (100 nM), both, or co-expressing PKAcat
row,binding,Binder
1,binds,"Venus-tagged WT Rad (protein, UniProt O88667 1-308) MTLNGGSGASGSRGAGGRERDRRRGSTPWGPAPPLHRRSMPVDERDLQAALAPGSLATTAAGTRTQGQRLDWPEGSSDSLSSGGSGSEEGVYKVLLLGAPGVGKSALARIFGGIEDGPEAEAAGHTYDRSITVDGEEASLLVYDIWEEDGGCWLPGHCMAMGDAYVIVYSITDKGSFEKASELRVQLRRARQTDDVPIILVGNKSDLVRSREVSVDEGRACAVVFDCKFIETSAALHHNVQALFEGVVRQIRLRRDSKEDNARRQAGTRRRESLGKKAKRFLGRIVARNSRKMAFRAKSKSCHDLSVL"
2,binds,"Venus-tagged F280A/F294A Rad (protein, UniProt O88667 1-308) MTLNGGSGASGSRGAGGRERDRRRGSTPWGPAPPLHRRSMPVDERDLQAALAPGSLATTAAGTRTQGQRLDWPEGSSDSLSSGGSGSEEGVYKVLLLGAPGVGKSALARIFGGIEDGPEAEAAGHTYDRSITVDGEEASLLVYDIWEEDGGCWLPGHCMAMGDAYVIVYSITDKGSFEKASELRVQLRRARQTDDVPIILVGNKSDLVRSREVSVDEGRACAVVFDCKFIETSAALHHNVQALFEGVVRQIRLRRDSKEDNARRQAGTRRRESLGKKAKRALGRIVARNSRKMAARAKSKSCHDLSVL"
3,binds,"Venus-tagged 4SA-Rad (protein, UniProt O88667 1-308) MTLNGGSGASGSRGAGGRERDRRRGATPWGPAPPLHRRAMPVDERDLQAALAPGSLATTAAGTRTQGQRLDWPEGSSDSLSSGGSGSEEGVYKVLLLGAPGVGKSALARIFGGIEDGPEAEAAGHTYDRSITVDGEEASLLVYDIWEEDGGCWLPGHCMAMGDAYVIVYSITDKGSFEKASELRVQLRRARQTDDVPIILVGNKSDLVRSREVSVDEGRACAVVFDCKFIETSAALHHNVQALFEGVVRQIRLRRDSKEDNARRQAGTRRREALGKKAKRFLGRIVARNSRKMAFRAKSKACHDLSVL"
4,binds,"Venus-tagged C-2SA Rad (protein, UniProt O88667 1-308) MTLNGGSGASGSRGAGGRERDRRRGSTPWGPAPPLHRRSMPVDERDLQAALAPGSLATTAAGTRTQGQRLDWPEGSSDSLSSGGSGSEEGVYKVLLLGAPGVGKSALARIFGGIEDGPEAEAAGHTYDRSITVDGEEASLLVYDIWEEDGGCWLPGHCMAMGDAYVIVYSITDKGSFEKASELRVQLRRARQTDDVPIILVGNKSDLVRSREVSVDEGRACAVVFDCKFIETSAALHHNVQALFEGVVRQIRLRRDSKEDNARRQAGTRRREALGKKAKRFLGRIVARNSRKMAFRAKSKACHDLSVL"
5,binds,"Venus-tagged C-2SD Rad (protein, UniProt O88667 1-308) MTLNGGSGASGSRGAGGRERDRRRGSTPWGPAPPLHRRSMPVDERDLQAALAPGSLATTAAGTRTQGQRLDWPEGSSDSLSSGGSGSEEGVYKVLLLGAPGVGKSALARIFGGIEDGPEAEAAGHTYDRSITVDGEEASLLVYDIWEEDGGCWLPGHCMAMGDAYVIVYSITDKGSFEKASELRVQLRRARQTDDVPIILVGNKSDLVRSREVSVDEGRACAVVFDCKFIETSAALHHNVQALFEGVVRQIRLRRDSKEDNARRQAGTRRREDLGKKAKRFLGRIVARNSRKMAFRAKSKDCHDLSVL"
6,binds,"Venus-tagged N-2SA Rad (protein, UniProt O88667 1-308) MTLNGGSGASGSRGAGGRERDRRRGATPWGPAPPLHRRAMPVDERDLQAALAPGSLATTAAGTRTQGQRLDWPEGSSDSLSSGGSGSEEGVYKVLLLGAPGVGKSALARIFGGIEDGPEAEAAGHTYDRSITVDGEEASLLVYDIWEEDGGCWLPGHCMAMGDAYVIVYSITDKGSFEKASELRVQLRRARQTDDVPIILVGNKSDLVRSREVSVDEGRACAVVFDCKFIETSAALHHNVQALFEGVVRQIRLRRDSKEDNARRQAGTRRRESLGKKAKRFLGRIVARNSRKMAFRAKSKSCHDLSVL"
7,no binding,"Venus-tagged R208A/L235A Rad (protein, UniProt O88667 1-308) MTLNGGSGASGSRGAGGRERDRRRGSTPWGPAPPLHRRSMPVDERDLQAALAPGSLATTAAGTRTQGQRLDWPEGSSDSLSSGGSGSEEGVYKVLLLGAPGVGKSALARIFGGIEDGPEAEAAGHTYDRSITVDGEEASLLVYDIWEEDGGCWLPGHCMAMGDAYVIVYSITDKGSFEKASELRVQLRRARQTDDVPIILVGNKSDLVASREVSVDEGRACAVVFDCKFIETSAAAHHNVQALFEGVVRQIRLRRDSKEDNARRQAGTRRRESLGKKAKRFLGRIVARNSRKMAFRAKSKSCHDLSVL"
